The other results are listed elsewhere or left out.
What was measured:
Assay in all cases: log2 fold change, soluble protein after heating vs DMSO (PISA); higher = thermal stabilisation; K562 lysate, 10 uM; active = over 0.2 and 3.5 SD of the protein, either way, in both replicates (recomputed)
erlotinib = compound: C#Cc1cccc(Nc2ncnc3cc(OCCOC)c(OCCOC)cc23)c1 [erlotinib]
Procedure, shortened: (§1)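 The values are log-two fold changes in thermal stability compared with solvent controls and come from duplicates. They were obtained by TMTpro 16plex LC-MS/MS, with channel sums equalised, on the supernatant after 21,000xg for 90 min. That supernatant came from crude K562 extract at 1 mg/mL protein treated with 10 μM compound for 30 min, heated for 3 min across 48°C-58°C, pooled and brought to 0.5% NP-40 at 4°C.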

Protein sequences, listed by entry. Tags and fused reporters are not part of them. Lines headed by an entry give the natural chain unless they say otherwise; changes in a name come on top.
UniProt Q9UBM7: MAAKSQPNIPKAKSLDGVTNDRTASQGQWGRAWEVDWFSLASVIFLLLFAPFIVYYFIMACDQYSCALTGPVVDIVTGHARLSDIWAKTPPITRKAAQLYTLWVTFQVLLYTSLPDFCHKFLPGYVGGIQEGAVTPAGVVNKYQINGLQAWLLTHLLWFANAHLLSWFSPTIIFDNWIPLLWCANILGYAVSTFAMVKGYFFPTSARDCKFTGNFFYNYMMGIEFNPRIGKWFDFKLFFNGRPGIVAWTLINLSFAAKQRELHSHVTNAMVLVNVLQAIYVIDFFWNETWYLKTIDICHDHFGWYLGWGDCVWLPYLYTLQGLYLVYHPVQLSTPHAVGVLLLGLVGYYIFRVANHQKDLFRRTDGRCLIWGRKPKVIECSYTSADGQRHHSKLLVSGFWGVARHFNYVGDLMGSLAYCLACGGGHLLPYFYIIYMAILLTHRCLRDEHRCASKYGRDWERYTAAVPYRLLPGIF
UniProt P00374: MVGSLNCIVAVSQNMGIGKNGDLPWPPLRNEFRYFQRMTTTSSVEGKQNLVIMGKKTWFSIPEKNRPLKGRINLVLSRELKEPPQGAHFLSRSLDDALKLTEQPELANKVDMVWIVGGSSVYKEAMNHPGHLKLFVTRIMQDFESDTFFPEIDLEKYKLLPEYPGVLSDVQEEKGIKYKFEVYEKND
UniProt Q9H5Z1: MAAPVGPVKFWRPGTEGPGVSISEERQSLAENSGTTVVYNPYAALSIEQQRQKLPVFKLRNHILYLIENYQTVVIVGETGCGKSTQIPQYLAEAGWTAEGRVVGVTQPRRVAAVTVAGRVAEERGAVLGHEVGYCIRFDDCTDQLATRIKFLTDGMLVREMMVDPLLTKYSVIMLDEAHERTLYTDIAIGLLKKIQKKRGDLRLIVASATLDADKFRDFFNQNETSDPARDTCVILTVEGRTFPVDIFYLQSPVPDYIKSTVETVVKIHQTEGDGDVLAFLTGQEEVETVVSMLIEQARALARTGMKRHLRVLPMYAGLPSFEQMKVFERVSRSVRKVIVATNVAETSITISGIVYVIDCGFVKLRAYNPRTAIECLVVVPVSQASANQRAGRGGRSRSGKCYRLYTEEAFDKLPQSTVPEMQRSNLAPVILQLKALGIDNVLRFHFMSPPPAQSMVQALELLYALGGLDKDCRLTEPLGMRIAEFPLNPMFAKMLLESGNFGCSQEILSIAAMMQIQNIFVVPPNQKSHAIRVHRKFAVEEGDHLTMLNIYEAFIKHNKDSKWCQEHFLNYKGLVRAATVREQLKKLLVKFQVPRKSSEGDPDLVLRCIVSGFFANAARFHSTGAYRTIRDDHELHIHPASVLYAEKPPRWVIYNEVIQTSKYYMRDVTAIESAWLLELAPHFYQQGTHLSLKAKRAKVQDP
UniProt Q96EY1: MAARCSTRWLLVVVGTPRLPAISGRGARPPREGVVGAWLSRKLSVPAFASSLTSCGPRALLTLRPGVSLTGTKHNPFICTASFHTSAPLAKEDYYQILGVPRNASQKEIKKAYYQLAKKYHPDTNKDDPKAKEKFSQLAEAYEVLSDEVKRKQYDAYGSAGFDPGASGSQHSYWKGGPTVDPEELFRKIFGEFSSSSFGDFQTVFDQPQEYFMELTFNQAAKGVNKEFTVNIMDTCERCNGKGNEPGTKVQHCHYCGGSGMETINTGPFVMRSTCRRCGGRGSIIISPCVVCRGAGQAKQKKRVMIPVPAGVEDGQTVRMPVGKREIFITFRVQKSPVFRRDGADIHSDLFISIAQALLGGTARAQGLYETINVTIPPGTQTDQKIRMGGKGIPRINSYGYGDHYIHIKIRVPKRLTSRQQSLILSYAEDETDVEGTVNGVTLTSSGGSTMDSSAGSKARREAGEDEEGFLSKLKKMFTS
UniProt Q9BTZ2: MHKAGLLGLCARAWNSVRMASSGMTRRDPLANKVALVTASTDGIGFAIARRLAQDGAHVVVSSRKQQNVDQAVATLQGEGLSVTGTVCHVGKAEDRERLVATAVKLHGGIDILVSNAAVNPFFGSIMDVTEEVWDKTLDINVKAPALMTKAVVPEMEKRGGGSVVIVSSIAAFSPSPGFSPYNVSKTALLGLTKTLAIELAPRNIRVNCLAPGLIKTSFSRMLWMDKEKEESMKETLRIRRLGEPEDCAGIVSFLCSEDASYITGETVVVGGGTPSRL
UniProt Q5F1R6: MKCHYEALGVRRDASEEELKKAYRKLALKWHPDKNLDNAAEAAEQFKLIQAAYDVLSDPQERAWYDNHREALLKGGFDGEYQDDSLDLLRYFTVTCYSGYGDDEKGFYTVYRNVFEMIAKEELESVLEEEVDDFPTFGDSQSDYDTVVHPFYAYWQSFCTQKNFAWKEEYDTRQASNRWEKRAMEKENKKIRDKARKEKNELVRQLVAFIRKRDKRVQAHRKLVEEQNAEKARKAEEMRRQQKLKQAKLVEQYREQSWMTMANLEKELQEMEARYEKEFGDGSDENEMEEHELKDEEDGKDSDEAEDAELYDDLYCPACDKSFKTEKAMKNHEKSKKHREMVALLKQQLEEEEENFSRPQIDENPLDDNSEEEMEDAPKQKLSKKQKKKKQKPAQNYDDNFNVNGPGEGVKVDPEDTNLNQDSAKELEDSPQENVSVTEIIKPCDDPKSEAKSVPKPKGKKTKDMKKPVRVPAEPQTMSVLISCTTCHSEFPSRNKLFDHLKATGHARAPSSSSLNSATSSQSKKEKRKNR
UniProt Q8WYQ5: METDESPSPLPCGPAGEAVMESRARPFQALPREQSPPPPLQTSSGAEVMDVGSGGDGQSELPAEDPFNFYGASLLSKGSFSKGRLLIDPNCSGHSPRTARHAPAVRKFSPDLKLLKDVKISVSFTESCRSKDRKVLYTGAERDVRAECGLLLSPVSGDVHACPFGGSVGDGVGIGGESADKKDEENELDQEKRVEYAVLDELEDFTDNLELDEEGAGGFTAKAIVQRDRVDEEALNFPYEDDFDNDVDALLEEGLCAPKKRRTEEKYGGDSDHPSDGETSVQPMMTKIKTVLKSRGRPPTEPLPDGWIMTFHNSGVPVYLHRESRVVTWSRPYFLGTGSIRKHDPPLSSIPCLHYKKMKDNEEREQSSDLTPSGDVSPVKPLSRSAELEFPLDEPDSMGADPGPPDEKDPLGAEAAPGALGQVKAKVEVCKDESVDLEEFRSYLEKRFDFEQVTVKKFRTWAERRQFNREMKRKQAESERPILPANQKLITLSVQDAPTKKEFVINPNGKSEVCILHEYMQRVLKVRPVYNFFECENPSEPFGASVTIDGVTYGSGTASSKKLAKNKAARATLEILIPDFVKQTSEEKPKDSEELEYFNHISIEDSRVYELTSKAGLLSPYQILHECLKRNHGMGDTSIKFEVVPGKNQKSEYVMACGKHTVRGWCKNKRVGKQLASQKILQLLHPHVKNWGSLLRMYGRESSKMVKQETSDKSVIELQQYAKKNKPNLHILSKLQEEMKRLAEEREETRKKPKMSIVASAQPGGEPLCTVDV
UniProt Q6P3W2: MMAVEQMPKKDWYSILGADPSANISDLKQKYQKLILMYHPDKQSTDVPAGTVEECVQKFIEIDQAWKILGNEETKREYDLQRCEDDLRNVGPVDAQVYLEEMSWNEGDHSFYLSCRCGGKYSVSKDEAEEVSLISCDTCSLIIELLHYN
UniProt Q8TEK3: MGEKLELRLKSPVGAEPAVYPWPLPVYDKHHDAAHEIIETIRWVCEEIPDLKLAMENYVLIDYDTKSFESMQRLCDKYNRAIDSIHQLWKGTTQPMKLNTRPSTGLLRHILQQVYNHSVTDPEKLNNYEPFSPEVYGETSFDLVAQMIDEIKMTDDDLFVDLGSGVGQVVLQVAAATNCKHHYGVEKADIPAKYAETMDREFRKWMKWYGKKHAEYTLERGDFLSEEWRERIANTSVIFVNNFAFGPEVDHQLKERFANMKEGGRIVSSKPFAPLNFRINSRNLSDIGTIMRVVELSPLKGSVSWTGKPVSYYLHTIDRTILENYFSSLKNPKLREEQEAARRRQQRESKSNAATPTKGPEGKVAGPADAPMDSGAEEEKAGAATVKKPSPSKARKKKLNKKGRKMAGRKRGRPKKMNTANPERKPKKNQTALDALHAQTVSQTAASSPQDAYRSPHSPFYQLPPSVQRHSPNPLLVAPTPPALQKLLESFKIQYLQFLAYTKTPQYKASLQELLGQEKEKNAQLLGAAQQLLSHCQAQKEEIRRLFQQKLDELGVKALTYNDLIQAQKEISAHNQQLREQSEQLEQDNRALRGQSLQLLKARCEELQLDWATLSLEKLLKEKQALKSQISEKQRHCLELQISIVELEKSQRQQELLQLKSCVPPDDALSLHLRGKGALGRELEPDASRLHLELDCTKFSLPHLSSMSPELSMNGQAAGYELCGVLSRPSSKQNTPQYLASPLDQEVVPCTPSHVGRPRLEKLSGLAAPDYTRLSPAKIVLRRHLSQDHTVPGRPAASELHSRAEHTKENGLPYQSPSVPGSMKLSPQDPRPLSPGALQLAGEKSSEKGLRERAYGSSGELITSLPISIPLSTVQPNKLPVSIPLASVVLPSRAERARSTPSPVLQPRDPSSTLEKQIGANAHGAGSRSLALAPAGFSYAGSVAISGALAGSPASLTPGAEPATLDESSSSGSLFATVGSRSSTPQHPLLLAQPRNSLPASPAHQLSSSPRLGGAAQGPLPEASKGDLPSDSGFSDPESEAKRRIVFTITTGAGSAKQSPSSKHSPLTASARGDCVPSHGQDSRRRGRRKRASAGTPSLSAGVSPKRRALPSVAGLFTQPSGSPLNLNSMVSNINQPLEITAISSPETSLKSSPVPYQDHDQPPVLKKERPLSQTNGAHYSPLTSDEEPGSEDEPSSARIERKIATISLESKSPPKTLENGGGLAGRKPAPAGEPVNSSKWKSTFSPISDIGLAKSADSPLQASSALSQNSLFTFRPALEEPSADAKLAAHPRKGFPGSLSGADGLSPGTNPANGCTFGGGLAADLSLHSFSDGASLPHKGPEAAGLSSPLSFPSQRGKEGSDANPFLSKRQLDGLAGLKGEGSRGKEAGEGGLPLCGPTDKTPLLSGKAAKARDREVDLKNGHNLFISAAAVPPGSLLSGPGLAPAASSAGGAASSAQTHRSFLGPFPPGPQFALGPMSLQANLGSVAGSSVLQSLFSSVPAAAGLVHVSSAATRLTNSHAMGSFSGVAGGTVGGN
UniProt P52429: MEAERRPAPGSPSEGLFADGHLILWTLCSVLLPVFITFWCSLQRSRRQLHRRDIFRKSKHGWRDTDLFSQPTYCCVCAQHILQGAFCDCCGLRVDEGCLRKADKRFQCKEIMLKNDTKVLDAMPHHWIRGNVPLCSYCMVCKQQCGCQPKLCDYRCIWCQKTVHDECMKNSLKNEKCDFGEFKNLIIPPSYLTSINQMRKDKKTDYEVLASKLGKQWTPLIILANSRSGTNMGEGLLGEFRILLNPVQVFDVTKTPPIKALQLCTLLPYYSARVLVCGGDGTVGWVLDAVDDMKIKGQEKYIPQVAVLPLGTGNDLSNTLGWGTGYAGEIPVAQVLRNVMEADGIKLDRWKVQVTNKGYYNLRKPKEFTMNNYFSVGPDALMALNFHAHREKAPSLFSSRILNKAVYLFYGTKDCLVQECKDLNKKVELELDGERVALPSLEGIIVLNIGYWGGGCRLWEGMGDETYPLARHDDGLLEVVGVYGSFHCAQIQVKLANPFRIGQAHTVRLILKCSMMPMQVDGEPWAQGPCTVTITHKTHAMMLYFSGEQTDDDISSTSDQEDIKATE

[1] = compound: C/C(=N\NC(=O)C1=CC(=CC=C1)S(=O)(=O)N2CCOCC2)/C3=C(C=CC(=C3)Cl)O
Procedure, shortened: as §1

[2] = compound: C1=CC(=CC=C1C2=NC3=C(N2)C=C(C=C3)C(=O)N)OC4=CC=C(C=C4)Cl
Procedure, shortened: as §1

[3] = compound: C1=CC2=C(C=CC(=C2)/C=C\3/C(=O)NC(=NCC4=CC=CS4)S3)N=C1
Procedure, shortened: as §1

[4] = compound: C1=CC2=NC=CN=C2C=C1/C=C/3\C(=O)NC(=O)S3
Procedure, shortened: as §1

[5] = compound: C1=CC=C(C=C1)C2=NC(=C(N2)C3=CC=NC=C3)C4=CC(=C(C=C4)Cl)O
Procedure, shortened: as §1

[6] = compound: C1=CC=C2C(=C1)C3=NNC4=CC=CC(=C43)C2=O
Procedure, shortened: as §1

[7] = compound: C1CCN(C1)C(=O)NC2=CC=CC(=C2)NC3=NC=C(C(=N3)NCCC4=CN=CN4)Br
Procedure, shortened: as §1

[8] = compound: C1CN(CCC1(CC2=CC=C(C=C2)Cl)N)C3=NC=NC4=C3C=CN4
Procedure, shortened: as §1

IRAK-1-4 Inhibitor I = compound: C1COCCN1CCN2C3=CC=CC=C3N=C2NC(=O)C4=CC(=CC=C4)[N+](=O)[O-] [IRAK-1-4 Inhibitor I]
Procedure, shortened: as §1

Measured: log2 fold change

DNAH8 (UniProt Q96JB1)
inactive: erlotinib -0.031 | [1] -0.044 | [2] 0.588 | [3] -0.001 | [4] -0.03 | [5] -0.025 | [6] -0.074 | [7] -0.032 | [8] 0.116 | IRAK-1-4 Inhibitor I 0.068

DHCR7 (UniProt Q9UBM7)
inactive: erlotinib -0.051 | [1] 0.081 | [2] -0.153 | [3] -0.016 | [4] 0.033 | [5] -0.024 | [6] -0.019 | [7] -0.058 | [8] 0.075 | IRAK-1-4 Inhibitor I 0.007

DHFR (UniProt P00374)
inactive: erlotinib 0.031 | [1] 0.046 | [2] -0.023 | [3] -0.019 | [4] 0.045 | [5] 0.025 | [6] -0.01 | [7] 0.034 | [8] 0.019 | IRAK-1-4 Inhibitor I -0.055

DMAC2 isoform 4 (UniProt Q9NW81)
inactive: erlotinib 0.062 | [1] 0.114 | [2] -0.072 | [3] 0.02 | [4] 0.019 | [5] -0.047 | [6] -0.078 | [7] -0.052 | [8] 0.001 | IRAK-1-4 Inhibitor I -0.233

DHDDS isoform 2 (UniProt Q86SQ9)
inactive: erlotinib -0.038 | [1] -0.045 | [2] 0.033 | [3] -0.01 | [4] 0.024 | [5] 0.011 | [6] -0.094 | [7] 0.053 | [8] -0.051 | IRAK-1-4 Inhibitor I 0.014

DHX35 (UniProt Q9H5Z1)
inactive: erlotinib 0.016 | [1] 0.095 | [2] -0.032 | [3] -0.146 | [4] 0.001 | [5] 0.026 | [6] -0.012 | [7] -0.021 | [8] -0.009 | IRAK-1-4 Inhibitor I -0.025

DNAJA3 isoform 2 (UniProt Q96EY1)
inactive: erlotinib 0.048 | [1] -0.217 | [2] 0.099 | [3] 0.035 | [4] -0.006 | [5] 0.082 | [6] -0.159 | [7] 0.011 | [8] -0.047 | IRAK-1-4 Inhibitor I 0.024

DMXL2 isoform 3 (UniProt Q8TDJ6)
inactive: erlotinib 0.046 | [1] -0.039 | [2] -0.007 | [3] 0.04 | [4] 0.082 | [5] -0.051 | [6] -0.053 | [7] -0.04 | [8] 0.025 | IRAK-1-4 Inhibitor I -0.005

DHRS4 (UniProt Q9BTZ2)
inactive: erlotinib -0.036 | [1] 0.007 | [2] 0.025 | [3] 0.026 | [4] -0.021 | [5] -0.015 | [6] 0.049 | [7] -0.002 | [8] -0.008 | IRAK-1-4 Inhibitor I 0.048

DLD (UniProt P09622)
inactive: erlotinib 0.014 | [1] 0 | [2] 0.022 | [3] -0.01 | [4] 0.025 | [5] 0.004 | [6] 0.007 | [7] 0.008 | [8] 0.006 | IRAK-1-4 Inhibitor I 0.026

DNAJC21 isoform 3 (UniProt Q5F1R6)
inactive: erlotinib 0.017 | [1] -0.01 | [2] 0.031 | [3] 0.046 | [4] -0.008 | [5] 0.032 | [6] -0.008 | [7] 0.023 | [8] 0.026 | IRAK-1-4 Inhibitor I -0.021

DHRS7B (UniProt Q6IAN0)
inactive: erlotinib -0.023 | [1] -0.035 | [2] -0.011 | [3] -0.038 | [4] -0.063 | [5] -0.046 | [6] 0.006 | [7] -0.04 | [8] 0.046 | IRAK-1-4 Inhibitor I 0.044

DGCR8 (UniProt Q8WYQ5)
inactive: erlotinib 0.045 | [1] -0.026 | [2] 0.019 | [3] 0.023 | [4] -0.057 | [5] 0.002 | [6] -0.011 | [7] -0.019 | [8] 0 | IRAK-1-4 Inhibitor I -0.038

DNPH1 (UniProt H0Y8X4)
inactive: erlotinib -0.014 | [1] 0.029 | [2] -0.001 | [3] 0.001 | [4] -0.013 | [5] -0.022 | [6] 0.06 | [7] 0.008 | [8] 0.014 | IRAK-1-4 Inhibitor I -0.006

DNMT3A (UniProt Q9Y6K1)
inactive: erlotinib -0.055 | [2] 0.103

DNAH5 (UniProt Q8TE73)
inactive: erlotinib -0.006 | [1] -0.008 | [2] 0 | [3] -0.024 | [4] 0.015 | [5] 0.004 | [6] -0.056 | IRAK-1-4 Inhibitor I -0.015

DGAT1 (UniProt O75907)
inactive: erlotinib -0.06 | [1] 0.06 | [2] -0.137 | [3] -0.079 | [4] 0.055 | [5] 0.05 | [6] 0.009 | [7] 0.013 | [8] 0.049 | IRAK-1-4 Inhibitor I -0.033

DNTTIP1 (UniProt Q9H147)
inactive: erlotinib -0.072 | [1] -0.013 | [2] 0.021 | [3] -0.041 | [6] 0.172 | [7] 0.13 | [8] 0.061

DNAJC24 (UniProt Q6P3W2)
inactive: erlotinib 0.034 | [1] -0.069 | [2] 0.021 | [3] 0.011 | [5] 0.016 | [6] 0.081 | [7] 0.01 | [8] 0.01 | IRAK-1-4 Inhibitor I -0.055

DOT1L isoform 1 (UniProt Q8TEK3)
inactive: erlotinib -0.183 | [1] -0.196 | [2] 0.002 | [3] 0.079 | [6] -0.004 | [7] -0.277 | [8] 0.036

Quoted at random: two records from the list, in no set order.
DOT1L isoform 1 (UniProt Q8TEK3)
inactive: erlotinib -0.183 | [1] -0.196 | [2] 0.002 | [3] 0.079 | [6] -0.004 | [7] -0.277 | [8] 0.036

DHRS4 (UniProt Q9BTZ2)
inactive: erlotinib -0.036 | [1] 0.007 | [2] 0.025 | [3] 0.026 | [4] -0.021 | [5] -0.015 | [6] 0.049 | [7] -0.002 | [8] -0.008 | IRAK-1-4 Inhibitor I 0.048

Later entries

DGCR2 (UniProt P98153)
inactive: erlotinib 0.05 | [1] 0.01 | [2] -0.129 | [3] 0.031 | [5] -0.173 | [6] -0.084 | [7] 0.056 | [8] 0.006 | IRAK-1-4 Inhibitor I -0.086

DMTN isoform 2 (UniProt Q08495)
inactive: erlotinib -0.11 | [1] 0.016 | [2] 0.036 | [3] 0.069 | [6] -0.099 | [7] -0.036 | [8] 0.002

DGUOK (UniProt Q16854)
inactive: erlotinib 0.011 | [1] 0.05 | [2] 0.031 | [3] 0.083 | [4] 0.016 | [5] 0.047 | [6] -0.039 | [7] 0.006 | [8] 0.047 | IRAK-1-4 Inhibitor I 0.055

DNA2 (UniProt P51530)
inactive: erlotinib -0.019 | [1] 0.071 | [2] -0.054 | [3] -0.163 | [5] -0.032 | [6] 0.044 | [7] 0.027 | [8] 0.077 | IRAK-1-4 Inhibitor I -0.033

DNAJC13 (UniProt O75165)
inactive: erlotinib -0.012 | [1] 0.028 | [2] -0.009 | [3] -0.013 | [4] -0.031 | [5] -0.013 | [6] -0.031 | [7] -0.026 | [8] 0.036 | IRAK-1-4 Inhibitor I -0.01

DHRSX (UniProt Q8N5I4)
inactive: erlotinib 0.297 | [1] -0.141 | [2] 0.099 | [3] -0.039 | [5] 0.151 | [6] 0.04 | IRAK-1-4 Inhibitor I 0.071

DIP2A (UniProt Q14689)
inactive: erlotinib 0.058 | [1] 0.008 | [2] -0.001 | [3] -0.031 | [4] -0.038 | [5] -0.035 | [6] -0.027 | [7] 0.072 | [8] 0.005 | IRAK-1-4 Inhibitor I 0.071

DOCK6 (UniProt Q96HP0)
inactive: erlotinib 0.179 | [2] 0.057

DNHD1 (UniProt Q96M86)
inactive: erlotinib 0.262 | [1] -0.095 | [2] 0.006 | [3] 0.024 | [4] -0.06 | [5] 0.178 | [6] -0.211 | IRAK-1-4 Inhibitor I 0.183

DGKQ (UniProt P52824)
inactive: erlotinib 0.083 | [1] -0.194 | [2] 0.095 | [3] -0.054 | [5] -0.187 | [6] -0.204 | [7] -0.06 | [8] 0.22 | IRAK-1-4 Inhibitor I -0.23

DHRS11 (UniProt Q6UWP2)
inactive: erlotinib 0.054 | [1] -0.017 | [2] -0.004 | [3] 0.017 | [4] -0.006 | [5] -0.015 | [6] -0.008 | [7] -0.041 | [8] 0.042 | IRAK-1-4 Inhibitor I -0.02

DLG3 isoform 2 (UniProt Q92796)
inactive: erlotinib -0.048 | [1] -0.085 | [2] 0.073 | [3] 0.002 | [4] -0.046 | [5] -0.012 | [6] -0.013 | [7] 0.019 | [8] -0.001 | IRAK-1-4 Inhibitor I -0.056

DHX30 isoform 2 (UniProt Q7L2E3)
inactive: erlotinib 0.013 | [1] 0.006 | [2] 0 | [3] 0.019 | [4] 0.011 | [5] 0 | [6] 0 | [7] 0.003 | [8] 0.045 | IRAK-1-4 Inhibitor I 0.005

DGKE (UniProt P52429)
inactive: erlotinib -0.09 | [1] 0.322 | [2] -0.19 | [3] -0.325 | [5] -0.059 | [6] 0.143 | [7] 0.094 | [8] 0.061 | IRAK-1-4 Inhibitor I -0.068

— the supplement of paper PMC10849652
